From the supplement of paper PMC10849652
The list shows a part of the results.

Chains of the proteins cited; added tags and fusions are not shown. Lines headed by an entry give the natural chain unless they say otherwise; changes in a name come on top.
UniProt P11274: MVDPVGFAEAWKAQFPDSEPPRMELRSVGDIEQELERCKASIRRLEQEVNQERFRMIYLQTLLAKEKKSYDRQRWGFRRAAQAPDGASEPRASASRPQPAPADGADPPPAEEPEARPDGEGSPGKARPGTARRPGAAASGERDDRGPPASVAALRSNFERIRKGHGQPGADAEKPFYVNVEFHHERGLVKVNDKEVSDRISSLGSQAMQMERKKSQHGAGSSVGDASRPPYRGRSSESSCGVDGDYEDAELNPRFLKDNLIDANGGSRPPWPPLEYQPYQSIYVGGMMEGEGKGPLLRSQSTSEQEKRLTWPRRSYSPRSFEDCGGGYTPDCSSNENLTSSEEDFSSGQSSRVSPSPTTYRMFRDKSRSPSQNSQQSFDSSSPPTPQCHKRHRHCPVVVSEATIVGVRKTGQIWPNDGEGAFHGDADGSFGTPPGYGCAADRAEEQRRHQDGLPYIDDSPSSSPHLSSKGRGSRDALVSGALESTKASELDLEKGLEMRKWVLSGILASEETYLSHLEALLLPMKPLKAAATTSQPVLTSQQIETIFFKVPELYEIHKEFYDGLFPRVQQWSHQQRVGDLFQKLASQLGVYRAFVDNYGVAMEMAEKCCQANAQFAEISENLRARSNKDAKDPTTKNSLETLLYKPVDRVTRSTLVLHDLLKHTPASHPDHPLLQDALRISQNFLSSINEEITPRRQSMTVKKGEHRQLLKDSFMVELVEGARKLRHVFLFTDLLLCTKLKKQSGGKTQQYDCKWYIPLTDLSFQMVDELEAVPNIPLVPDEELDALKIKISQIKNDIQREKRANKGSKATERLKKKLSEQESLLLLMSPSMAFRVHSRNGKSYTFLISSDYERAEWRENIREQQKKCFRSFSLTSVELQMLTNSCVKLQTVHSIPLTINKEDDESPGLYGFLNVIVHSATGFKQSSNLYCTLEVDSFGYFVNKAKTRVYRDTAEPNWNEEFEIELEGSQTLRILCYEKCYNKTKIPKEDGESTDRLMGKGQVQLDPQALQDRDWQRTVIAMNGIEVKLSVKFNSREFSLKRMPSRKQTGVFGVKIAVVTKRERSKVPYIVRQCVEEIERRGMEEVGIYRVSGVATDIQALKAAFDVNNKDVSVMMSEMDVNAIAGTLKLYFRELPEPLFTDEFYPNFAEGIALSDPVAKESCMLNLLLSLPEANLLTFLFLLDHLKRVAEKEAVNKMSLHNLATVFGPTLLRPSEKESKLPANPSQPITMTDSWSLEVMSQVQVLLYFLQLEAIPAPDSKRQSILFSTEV
UniProt Q8TDN6: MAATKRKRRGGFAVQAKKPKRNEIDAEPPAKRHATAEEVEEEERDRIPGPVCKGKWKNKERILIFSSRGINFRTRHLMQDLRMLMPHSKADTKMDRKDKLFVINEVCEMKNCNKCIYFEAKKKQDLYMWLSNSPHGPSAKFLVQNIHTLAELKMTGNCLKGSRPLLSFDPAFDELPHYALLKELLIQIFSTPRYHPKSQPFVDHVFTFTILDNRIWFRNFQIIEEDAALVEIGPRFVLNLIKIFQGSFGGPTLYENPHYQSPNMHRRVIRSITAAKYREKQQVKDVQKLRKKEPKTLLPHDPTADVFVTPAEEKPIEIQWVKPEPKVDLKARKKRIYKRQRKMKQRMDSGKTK
UniProt Q9HB09: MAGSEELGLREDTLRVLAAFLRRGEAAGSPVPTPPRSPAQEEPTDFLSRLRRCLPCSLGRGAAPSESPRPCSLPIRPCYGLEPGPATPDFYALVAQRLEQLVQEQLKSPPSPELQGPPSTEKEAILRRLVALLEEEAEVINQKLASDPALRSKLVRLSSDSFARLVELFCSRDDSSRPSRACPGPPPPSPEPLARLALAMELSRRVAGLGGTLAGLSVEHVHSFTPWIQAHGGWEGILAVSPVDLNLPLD
UniProt Q13490, whole entry, looked up: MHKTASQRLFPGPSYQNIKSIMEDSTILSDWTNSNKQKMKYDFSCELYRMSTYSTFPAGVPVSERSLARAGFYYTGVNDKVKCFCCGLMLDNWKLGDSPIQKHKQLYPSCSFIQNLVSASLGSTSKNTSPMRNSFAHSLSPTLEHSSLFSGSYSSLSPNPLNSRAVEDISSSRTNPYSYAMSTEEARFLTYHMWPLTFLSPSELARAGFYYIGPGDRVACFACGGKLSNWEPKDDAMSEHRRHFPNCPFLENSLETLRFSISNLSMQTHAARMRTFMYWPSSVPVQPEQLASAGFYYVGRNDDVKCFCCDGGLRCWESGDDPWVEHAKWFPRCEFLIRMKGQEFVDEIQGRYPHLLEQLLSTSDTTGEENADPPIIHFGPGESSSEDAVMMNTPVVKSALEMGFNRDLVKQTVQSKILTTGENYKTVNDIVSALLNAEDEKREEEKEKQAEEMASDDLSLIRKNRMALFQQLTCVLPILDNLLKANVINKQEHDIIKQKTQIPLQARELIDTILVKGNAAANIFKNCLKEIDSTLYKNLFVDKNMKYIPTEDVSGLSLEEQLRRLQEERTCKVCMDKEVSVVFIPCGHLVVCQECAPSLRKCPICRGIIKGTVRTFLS
UniProt Q9H0E9, whole entry, looked up: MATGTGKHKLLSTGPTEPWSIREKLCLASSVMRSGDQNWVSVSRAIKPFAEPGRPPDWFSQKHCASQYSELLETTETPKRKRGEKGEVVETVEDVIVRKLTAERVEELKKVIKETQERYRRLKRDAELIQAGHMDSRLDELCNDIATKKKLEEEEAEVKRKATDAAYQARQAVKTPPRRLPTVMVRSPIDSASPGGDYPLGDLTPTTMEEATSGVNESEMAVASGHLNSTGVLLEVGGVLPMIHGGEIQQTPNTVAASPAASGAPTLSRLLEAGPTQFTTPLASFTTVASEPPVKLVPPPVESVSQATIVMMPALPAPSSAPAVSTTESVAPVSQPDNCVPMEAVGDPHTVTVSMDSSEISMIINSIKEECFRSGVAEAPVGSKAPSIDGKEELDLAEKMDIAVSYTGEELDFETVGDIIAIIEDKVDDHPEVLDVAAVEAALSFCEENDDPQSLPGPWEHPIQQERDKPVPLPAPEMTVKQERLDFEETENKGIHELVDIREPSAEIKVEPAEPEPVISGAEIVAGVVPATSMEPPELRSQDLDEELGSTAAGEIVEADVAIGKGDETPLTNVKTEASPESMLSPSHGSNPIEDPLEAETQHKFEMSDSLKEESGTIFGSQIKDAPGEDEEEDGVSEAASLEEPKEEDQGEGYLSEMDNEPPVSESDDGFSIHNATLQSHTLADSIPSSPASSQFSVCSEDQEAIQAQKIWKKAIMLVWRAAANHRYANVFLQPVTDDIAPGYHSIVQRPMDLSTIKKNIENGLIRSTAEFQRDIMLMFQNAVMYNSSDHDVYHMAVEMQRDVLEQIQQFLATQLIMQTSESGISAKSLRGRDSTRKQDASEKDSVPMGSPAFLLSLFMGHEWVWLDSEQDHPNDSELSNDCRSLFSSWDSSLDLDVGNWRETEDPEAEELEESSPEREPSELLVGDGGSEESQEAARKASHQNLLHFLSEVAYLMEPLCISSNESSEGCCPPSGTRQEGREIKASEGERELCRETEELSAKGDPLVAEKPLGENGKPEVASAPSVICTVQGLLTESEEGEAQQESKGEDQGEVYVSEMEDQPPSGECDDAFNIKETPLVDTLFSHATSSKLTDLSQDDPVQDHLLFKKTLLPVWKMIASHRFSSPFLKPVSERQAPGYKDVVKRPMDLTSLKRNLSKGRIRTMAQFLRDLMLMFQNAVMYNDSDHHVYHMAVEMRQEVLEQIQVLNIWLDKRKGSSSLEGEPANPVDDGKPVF
UniProt Q9UHQ4: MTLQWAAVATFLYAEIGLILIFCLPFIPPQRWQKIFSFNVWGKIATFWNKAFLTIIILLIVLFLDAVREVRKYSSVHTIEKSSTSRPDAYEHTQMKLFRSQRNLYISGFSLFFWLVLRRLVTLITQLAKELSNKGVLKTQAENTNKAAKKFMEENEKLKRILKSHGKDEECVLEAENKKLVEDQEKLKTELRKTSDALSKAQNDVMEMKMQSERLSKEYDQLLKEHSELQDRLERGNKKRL
UniProt O14981: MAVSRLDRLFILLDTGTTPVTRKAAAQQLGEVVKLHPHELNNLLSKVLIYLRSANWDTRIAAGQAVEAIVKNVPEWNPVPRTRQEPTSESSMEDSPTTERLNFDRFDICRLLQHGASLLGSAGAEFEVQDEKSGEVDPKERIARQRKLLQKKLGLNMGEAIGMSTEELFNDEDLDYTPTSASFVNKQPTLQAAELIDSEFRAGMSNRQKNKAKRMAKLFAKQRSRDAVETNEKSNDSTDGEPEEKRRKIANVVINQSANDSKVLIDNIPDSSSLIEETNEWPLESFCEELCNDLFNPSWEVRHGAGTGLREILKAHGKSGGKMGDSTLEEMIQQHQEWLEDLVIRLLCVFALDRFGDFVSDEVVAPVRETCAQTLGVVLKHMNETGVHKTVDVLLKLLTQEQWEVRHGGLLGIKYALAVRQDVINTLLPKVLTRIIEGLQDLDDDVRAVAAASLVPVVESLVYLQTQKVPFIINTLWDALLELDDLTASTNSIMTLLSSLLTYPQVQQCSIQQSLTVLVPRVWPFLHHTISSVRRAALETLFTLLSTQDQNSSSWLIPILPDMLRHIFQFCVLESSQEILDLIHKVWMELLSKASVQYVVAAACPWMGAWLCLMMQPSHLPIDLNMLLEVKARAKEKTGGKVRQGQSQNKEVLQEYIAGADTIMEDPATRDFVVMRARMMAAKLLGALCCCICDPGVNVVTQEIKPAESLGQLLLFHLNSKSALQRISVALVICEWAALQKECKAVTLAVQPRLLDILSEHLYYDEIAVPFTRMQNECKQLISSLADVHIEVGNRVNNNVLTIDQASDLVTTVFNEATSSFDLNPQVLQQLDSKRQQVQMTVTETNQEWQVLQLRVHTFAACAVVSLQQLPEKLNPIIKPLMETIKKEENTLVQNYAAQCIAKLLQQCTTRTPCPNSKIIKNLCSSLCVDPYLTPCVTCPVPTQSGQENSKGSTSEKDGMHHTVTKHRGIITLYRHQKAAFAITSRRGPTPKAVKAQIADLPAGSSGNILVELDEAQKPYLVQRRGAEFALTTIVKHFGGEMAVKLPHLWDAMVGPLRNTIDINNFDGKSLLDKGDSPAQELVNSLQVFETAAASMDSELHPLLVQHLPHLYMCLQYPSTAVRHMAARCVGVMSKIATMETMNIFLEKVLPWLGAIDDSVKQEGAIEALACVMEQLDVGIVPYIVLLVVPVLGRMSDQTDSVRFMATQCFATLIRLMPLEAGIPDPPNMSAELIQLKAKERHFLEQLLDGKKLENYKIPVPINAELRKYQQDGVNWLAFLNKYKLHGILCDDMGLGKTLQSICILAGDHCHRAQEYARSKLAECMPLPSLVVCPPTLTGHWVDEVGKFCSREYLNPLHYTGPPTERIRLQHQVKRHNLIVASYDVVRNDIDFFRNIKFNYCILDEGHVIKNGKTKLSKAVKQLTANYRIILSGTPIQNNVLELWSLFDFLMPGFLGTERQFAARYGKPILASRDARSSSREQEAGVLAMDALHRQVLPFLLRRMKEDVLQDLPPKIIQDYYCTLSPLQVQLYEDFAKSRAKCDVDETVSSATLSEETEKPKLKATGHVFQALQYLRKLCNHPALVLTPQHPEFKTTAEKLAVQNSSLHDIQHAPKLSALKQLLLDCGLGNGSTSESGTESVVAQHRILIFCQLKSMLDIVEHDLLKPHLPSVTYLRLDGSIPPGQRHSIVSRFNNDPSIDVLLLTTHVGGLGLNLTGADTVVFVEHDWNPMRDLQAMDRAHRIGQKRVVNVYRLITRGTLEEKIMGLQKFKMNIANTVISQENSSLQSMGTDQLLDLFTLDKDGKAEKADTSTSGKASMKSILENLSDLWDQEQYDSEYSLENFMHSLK
UniProt Q14137: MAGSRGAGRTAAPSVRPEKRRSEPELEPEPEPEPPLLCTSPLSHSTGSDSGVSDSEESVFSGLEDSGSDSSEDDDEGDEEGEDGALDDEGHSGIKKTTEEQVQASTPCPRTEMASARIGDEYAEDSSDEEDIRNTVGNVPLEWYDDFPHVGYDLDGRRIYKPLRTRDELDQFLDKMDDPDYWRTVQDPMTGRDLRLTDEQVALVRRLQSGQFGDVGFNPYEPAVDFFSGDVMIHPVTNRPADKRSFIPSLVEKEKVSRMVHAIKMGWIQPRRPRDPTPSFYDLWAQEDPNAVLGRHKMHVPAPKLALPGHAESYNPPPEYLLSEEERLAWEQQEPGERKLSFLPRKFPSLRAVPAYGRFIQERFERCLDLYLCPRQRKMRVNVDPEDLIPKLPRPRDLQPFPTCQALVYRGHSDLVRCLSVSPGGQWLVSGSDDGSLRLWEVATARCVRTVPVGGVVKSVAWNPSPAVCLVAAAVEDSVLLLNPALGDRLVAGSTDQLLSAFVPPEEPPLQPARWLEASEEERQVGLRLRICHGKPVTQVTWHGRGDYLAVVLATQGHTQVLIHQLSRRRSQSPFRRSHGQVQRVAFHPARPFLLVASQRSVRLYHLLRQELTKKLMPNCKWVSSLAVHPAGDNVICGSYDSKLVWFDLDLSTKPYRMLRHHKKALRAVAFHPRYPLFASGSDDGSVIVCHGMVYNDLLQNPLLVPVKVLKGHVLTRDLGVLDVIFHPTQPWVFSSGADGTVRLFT

Tests used:
Test in all cases: log2 fold change, soluble protein after heating vs DMSO (PISA); higher = thermal stabilisation; K562 lysate, 10 uM; active = over 0.2 and 3.5 SD of the protein, either way, in both replicates (recomputed)
vemurafenib = compound: CCCS(=O)(=O)Nc1ccc(F)c(C(=O)c2c[nH]c3ncc(-c4ccc(Cl)cc4)cc23)c1F [vemurafenib]
Outline: (§1)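 K562 pellets were dounce-homogenised in PBS pH 7.4 with 1 mM MgCl2, and the crude extract at 1 mg/mL protein was treated with 10 μM compound for 30 min. Aliquots were heated for 3 min across 48°C-58°C, pooled, and brought to 0.5% NP-40 at 4°C; soluble protein was the supernatant after 21,000xg for 90 min. Soluble protein was quantified by TMTpro 16plex LC-MS/MS with channel sums equalised, and reported as log2 fold change in thermal stability against DMSO controls, with values from duplicates.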

[1] = compound: CCCS(=O)(=O)Nc1ccc(F)c(C(=O)c2c[nH]c3ncc(Cl)cc23)c1F
Outline: as §1

barasertib = compound: CCN(CCCOc1ccc2c(Nc3cc(CC(=O)Nc4cccc(F)c4)[nH]n3)ncnc2c1)CCOP(=O)(O)O [barasertib]
Outline: as §1

[2] = compound: CC[C@@H]1C(=O)N(C)c2cnc(Nc3ccc(C(=O)NC4CCN(C)CC4)cc3OC)nc2N1C1CCCC1
Outline: as §1

volasertib = compound: CC[C@@H]1C(=O)N(C)c2cnc(Nc3ccc(C(=O)N[C@H]4CC[C@H](N5CCN(CC6CC6)CC5)CC4)cc3OC)nc2N1C(C)C [volasertib]
Outline: as §1

[3] = compound: CCn1c(C(=O)N(C2CC2)C2CC2)cc2c3c(ncn3C)c(Nc3cc(C)n(C)n3)nc21
Outline: as §1

[4] = compound: CCn1cc(-c2ccnc3[nH]c(-c4cccc(CN(C)C)c4)cc23)c(-c2ccc(NC(=O)N(C)C)cc2)n1
Outline: as §1

[5] = compound: CN1CCC(CNc2ccc3ncc(-c4cccc(OC(F)(F)F)c4)n3n2)CC1
Outline: as §1

saracatinib = compound: CN1CCN(CCOc2cc(OC3CCOCC3)c3c(Nc4c(Cl)ccc5c4OCO5)ncnc3c2)CC1 [saracatinib]
Outline: as §1

sotrastaurin = compound: CN1CCN(c2nc(C3=C(c4c[nH]c5ccccc45)C(=O)NC3=O)c3ccccc3n2)CC1 [sotrastaurin]
Outline: as §1

alvocidib = compound: CN1CC[C@H](c2c(O)cc(O)c3c(=O)cc(-c4ccccc4Cl)oc23)[C@H](O)C1 [alvocidib]
Outline: as §1

Tubastatin A = compound: CN1CCc2c(c3ccccc3n2Cc2ccc(C(=O)NO)cc2)C1 [Tubastatin A]
Outline: as §1

[6] = compound: CNC(=O)C1=CC=CC=C1NC2=NC(=NC=C2Cl)NC3=C(C=C(C=C3)N4CCOCC4)OC
Outline: as §1

defactinib = compound: CNC(=O)c1ccc(Nc2ncc(C(F)(F)F)c(NCc3nccnc3N(C)S(C)(=O)=O)n2)cc1 [defactinib]
Outline: as §1

[7] = compound: CNc1nc(-c2ccc3c(N)n[nH]c3c2)cc(N2C[C@@H](C(=O)NC3CCCCC3)CC[C@H]2C)n1
Outline: as §1

encorafenib = compound: COC(=O)N[C@@H](C)CNc1nccc(-c2cn(C(C)C)nc2-c2cc(Cl)cc(NS(C)(=O)=O)c2F)n1 [encorafenib]
Outline: as §1

[8] = compound: COC(=O)[C@H](CCSC)NC(=O)C1=C(C=C(C=C1)NC[C@H](CS)N)C2=CC=CC=C2
Outline: as §1

alisertib = compound: COc1cc(Nc2ncc3c(n2)-c2ccc(Cl)cc2C(c2c(F)cccc2OC)=NC3)ccc1C(=O)O [alisertib]
Outline: as §1

[9] = compound: COc1cc2nc(-c3cc(F)ccc3O)nc(N[C@@H]3CNC[C@H]3C(C)(C)O)c2cc1OC
Outline: as §1

gefitinib = compound: COc1cc2ncnc(Nc3ccc(F)c(Cl)c3)c2cc1OCCCN1CCOCC1 [gefitinib]
Outline: as §1

Measured: log2 fold change

BCR (UniProt P11274)
inactive: vemurafenib 0.012 | [1] 0.043 | barasertib -0.021 | [2] -0.062 | volasertib -0.056 | [3] 0.015 | [4] -0.112 | [5] -0.029 | saracatinib 0.024 | sotrastaurin -0.018 | alvocidib -0.007 | Tubastatin A -0.181 | [6] 0.002 | defactinib -0.008 | [7] -0.005 | encorafenib 0.036 | [8] 0.085 | alisertib -0.008 | [9] -0.021 | gefitinib -0.024

BCCIP isoform 2 (UniProt Q9P287)
inactive: vemurafenib -0.051 | [1] -0.014 | barasertib 0.01 | [2] -0.062 | volasertib 0.014 | [3] 0.015 | [4] 0.066 | [5] -0.053 | saracatinib -0.016 | sotrastaurin 0.014 | alvocidib 0.079 | Tubastatin A -0.003 | [6] 0.002 | defactinib 0.023 | [7] -0.13 | encorafenib 0.024 | [8] -0.024 | alisertib 0.009 | [9] -0.034 | gefitinib 0.012

BRIX1 (UniProt Q8TDN6)
inactive: vemurafenib -0.025 | [1] 0.01 | barasertib 0.011 | [2] -0.014 | volasertib -0.009 | [3] 0.008 | [4] -0.033 | [5] 0.02 | saracatinib 0.004 | sotrastaurin -0.005 | alvocidib 0.009 | Tubastatin A -0.013 | [6] 0.008 | defactinib 0.014 | [7] 0.002 | encorafenib 0.027 | [8] -0.039 | alisertib -0.002 | [9] -0.008 | gefitinib -0.043

BCL2L12 (UniProt Q9HB09)
inactive: vemurafenib -0.032 | [1] 0.08 | barasertib 0.166 | [2] 0.013 | volasertib -0.06 | [3] 0.087 | [4] 0.018 | [5] 0.116 | saracatinib 0.057 | sotrastaurin -0.007 | alvocidib 0.012 | Tubastatin A 0.016 | [6] -0.087 | defactinib 0.113 | [7] -0.059 | encorafenib -0.207 | [8] 0.023 | alisertib 0.008 | [9] 0.1 | gefitinib -0.062

BICD2 isoform 2 (UniProt Q8TD16)
inactive: vemurafenib 0 | [1] 0.01 | barasertib 0.02 | [2] 0.012 | volasertib 0.002 | [3] 0.001 | [4] 0.023 | [5] -0.03 | saracatinib -0.03 | sotrastaurin 0.021 | alvocidib -0.005 | Tubastatin A 0.039 | [6] -0.001 | defactinib -0.035 | [7] 0.022 | encorafenib -0.001 | [8] 0.01 | alisertib -0.008 | [9] -0.003 | gefitinib 0.015

BIRC2 (UniProt Q13490)
inactive: vemurafenib 0.013 | [1] 0.06 | barasertib -0.003 | [2] 0.032 | volasertib 0.038 | [3] -0.006 | [4] 0.012 | [5] 0.031 | saracatinib -0.013 | sotrastaurin 0.027 | alvocidib -0.054 | Tubastatin A 0.001 | [6] 0.01 | defactinib -0.024 | [7] -0.014 | encorafenib -0.021 | [8] -0.097 | alisertib 0.017 | [9] -0.007 | gefitinib 0.034

BRD8 isoform 2 (UniProt Q9H0E9)
inactive: vemurafenib -0.024 | [1] 0.055 | barasertib 0 | [2] 0.04 | volasertib 0.01 | [3] -0.007 | [4] 0.015 | [5] 0.005 | saracatinib -0.014 | sotrastaurin 0.017 | alvocidib -0.003 | Tubastatin A -0.005 | [6] 0.038 | defactinib 0.003 | [7] 0.012 | encorafenib 0.017 | [8] -0.074 | alisertib -0.003 | [9] -0.005 | gefitinib 0.009

BCOR (UniProt Q6W2J9)
inactive: vemurafenib 0.208 | [1] 0.012 | barasertib 0.052 | [2] 0.055 | volasertib 0.001 | [3] 0.182 | [4] -0.329 | [5] 0.134 | saracatinib 0.086 | sotrastaurin -0.034 | alvocidib -0.108 | Tubastatin A -0.132 | [6] -0.016 | defactinib -0.386 | [7] 0.013 | encorafenib 0.026 | [8] 0.191 | alisertib -0.034 | [9] 0.105 | gefitinib 0.106

BCAP29 isoform 2 (UniProt Q9UHQ4)
inactive: vemurafenib -0.011 | [1] -0.008 | barasertib 0.068 | [2] 0.021 | volasertib 0.024 | [3] 0.019 | [4] -0.005 | [5] 0.035 | saracatinib -0.019 | sotrastaurin -0.019 | alvocidib 0.01 | Tubastatin A 0.048 | [6] 0.04 | defactinib -0.05 | [7] 0.053 | encorafenib 0.018 | [8] -0.002 | alisertib 0.021 | [9] -0.115 | gefitinib 0.006

BRAT1 (UniProt Q6PJG6)
inactive: vemurafenib 0.011 | [1] -0.014 | barasertib 0.042 | [2] -0.086 | volasertib -0.046 | [3] 0.055 | [4] -0.023 | [5] -0.007 | saracatinib 0.016 | sotrastaurin 0.037 | alvocidib -0.018 | Tubastatin A -0.143 | [6] 0.031 | defactinib -0.046 | [7] -0.041 | encorafenib 0.01 | [8] 0.024 | alisertib -0.008 | [9] 0.018 | gefitinib -0.007

BAIAP2L1 (UniProt Q9UHR4)
inactive: vemurafenib 0.002 | [1] -0.001 | barasertib -0.004 | [2] 0.017 | volasertib 0.015 | [3] 0.005 | [4] 0.051 | [5] -0.021 | saracatinib -0.015 | sotrastaurin -0.004 | alvocidib 0.008 | Tubastatin A 0.029 | [6] 0.014 | defactinib 0.025 | [7] 0.025 | encorafenib 0.026 | [8] 0.005 | alisertib 0.01 | [9] -0.009 | gefitinib -0.003

BTAF1 (UniProt O14981)
inactive: vemurafenib 0.029 | [1] 0.026 | barasertib 0.029 | [2] -0.029 | volasertib -0.058 | [3] 0.045 | [4] -0.138 | [5] 0.051 | saracatinib 0.008 | sotrastaurin 0.006 | alvocidib -0.001 | Tubastatin A -0.106 | [6] 0.021 | defactinib -0.013 | [7] 0 | encorafenib 0.021 | [8] 0.008 | alisertib 0.018 | [9] -0.008 | gefitinib 0.009

BOP1 (UniProt Q14137)
inactive: vemurafenib 0.013 | [1] 0.009 | barasertib -0.027 | [2] -0.001 | volasertib -0.027 | [3] 0.02 | [4] 0.004 | [5] 0.02 | saracatinib 0.029 | sotrastaurin 0.026 | alvocidib -0.007 | Tubastatin A -0.077 | [6] -0.007 | defactinib 0 | [7] -0.037 | encorafenib 0.021 | [8] 0.121 | alisertib -0.038 | [9] 0.015 | gefitinib 0.018

B4GALT3 (UniProt O60512)
inactive: vemurafenib 0 | [1] -0.151 | barasertib -0.058 | [2] 0.218 | volasertib -0.023 | [3] 0.252 | [4] 0.109 | [5] -0.079 | saracatinib 0.01 | sotrastaurin 0.03 | alvocidib 0.038 | Tubastatin A 0.015 | [6] 0.02 | defactinib -0.045 | [7] -0.114 | encorafenib 0.128 | [8] 0.17 | alisertib 0.09 | [9] -0.031 | gefitinib 0.01

BTBD6 (UniProt Q96KE9)
inactive: vemurafenib 0.137 | [1] 0.039 | barasertib -0.037 | [2] 0.299 | volasertib 0.053 | [3] -0.33 | [4] -0.52 | [5] 0.301 | saracatinib 0.044 | sotrastaurin -0.042 | alvocidib -0.218 | Tubastatin A 0.241 | [6] 0.005 | defactinib 0 | [7] 0.733 | encorafenib -0.104 | [8] 0.05 | alisertib 0.073 | [9] 0.134 | gefitinib -0.017

2 entries drawn at random from those above, as already listed:
BTAF1 (UniProt O14981)
inactive: vemurafenib 0.029 | [1] 0.026 | barasertib 0.029 | [2] -0.029 | volasertib -0.058 | [3] 0.045 | [4] -0.138 | [5] 0.051 | saracatinib 0.008 | sotrastaurin 0.006 | alvocidib -0.001 | Tubastatin A -0.106 | [6] 0.021 | defactinib -0.013 | [7] 0 | encorafenib 0.021 | [8] 0.008 | alisertib 0.018 | [9] -0.008 | gefitinib 0.009

B4GALT3 (UniProt O60512)
inactive: vemurafenib 0 | [1] -0.151 | barasertib -0.058 | [2] 0.218 | volasertib -0.023 | [3] 0.252 | [4] 0.109 | [5] -0.079 | saracatinib 0.01 | sotrastaurin 0.03 | alvocidib 0.038 | Tubastatin A 0.015 | [6] 0.02 | defactinib -0.045 | [7] -0.114 | encorafenib 0.128 | [8] 0.17 | alisertib 0.09 | [9] -0.031 | gefitinib 0.01

(list continues)

BPNT1 (UniProt O95861)
inactive: vemurafenib -0.012 | [1] -0.002 | barasertib 0.011 | [2] 0.012 | volasertib 0.014 | [3] -0.012 | [4] 0.043 | [5] 0.006 | saracatinib -0.074 | sotrastaurin -0.07 | alvocidib 0.019 | Tubastatin A 0.035 | [6] 0.003 | defactinib 0.002 | [7] 0.017 | encorafenib -0.058 | [8] -0.033 | alisertib 0.017 | [9] 0.003 | gefitinib -0.027
